Results taken from the supplement of paper PMC10849652.
This is one part of the list.

The chains behind the UniProt entries cited, without tags or fusion partners. Where a name states a change or a piece, a line headed by the entry shows the natural chain unless it says otherwise.
UniProt Q96ME7: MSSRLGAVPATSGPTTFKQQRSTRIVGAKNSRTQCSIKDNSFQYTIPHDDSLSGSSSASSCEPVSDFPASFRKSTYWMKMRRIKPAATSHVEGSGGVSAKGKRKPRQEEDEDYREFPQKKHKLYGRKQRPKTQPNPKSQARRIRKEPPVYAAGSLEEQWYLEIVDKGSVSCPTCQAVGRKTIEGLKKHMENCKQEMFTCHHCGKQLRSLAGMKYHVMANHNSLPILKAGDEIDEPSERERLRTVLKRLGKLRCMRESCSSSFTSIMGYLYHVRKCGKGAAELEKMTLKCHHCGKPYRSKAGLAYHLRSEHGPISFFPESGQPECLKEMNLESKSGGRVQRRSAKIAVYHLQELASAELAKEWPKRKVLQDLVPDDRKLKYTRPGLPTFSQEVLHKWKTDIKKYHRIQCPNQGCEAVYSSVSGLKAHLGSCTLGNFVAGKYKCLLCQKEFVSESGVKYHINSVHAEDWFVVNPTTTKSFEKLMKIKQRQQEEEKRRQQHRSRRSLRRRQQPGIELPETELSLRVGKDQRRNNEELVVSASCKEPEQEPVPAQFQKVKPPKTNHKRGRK
UniProt O43670: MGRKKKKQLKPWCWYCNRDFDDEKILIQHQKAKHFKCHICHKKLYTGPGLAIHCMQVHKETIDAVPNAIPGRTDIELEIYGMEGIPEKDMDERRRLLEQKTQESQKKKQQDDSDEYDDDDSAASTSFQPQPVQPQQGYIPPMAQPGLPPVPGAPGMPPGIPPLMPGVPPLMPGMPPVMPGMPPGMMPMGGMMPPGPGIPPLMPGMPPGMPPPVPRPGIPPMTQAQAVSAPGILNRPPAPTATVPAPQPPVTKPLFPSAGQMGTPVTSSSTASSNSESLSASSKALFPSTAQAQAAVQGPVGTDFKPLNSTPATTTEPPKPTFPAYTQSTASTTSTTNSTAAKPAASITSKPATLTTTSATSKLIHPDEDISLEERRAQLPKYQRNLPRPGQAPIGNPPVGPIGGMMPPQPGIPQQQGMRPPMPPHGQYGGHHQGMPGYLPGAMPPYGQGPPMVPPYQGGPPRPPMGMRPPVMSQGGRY
UniProt P17026: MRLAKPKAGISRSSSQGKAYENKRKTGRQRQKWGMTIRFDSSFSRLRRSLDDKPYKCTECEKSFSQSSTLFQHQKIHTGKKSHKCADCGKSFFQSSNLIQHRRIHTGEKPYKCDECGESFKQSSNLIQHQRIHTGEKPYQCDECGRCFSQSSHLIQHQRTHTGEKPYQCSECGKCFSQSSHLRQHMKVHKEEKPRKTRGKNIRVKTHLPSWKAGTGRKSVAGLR
UniProt Q5VV52: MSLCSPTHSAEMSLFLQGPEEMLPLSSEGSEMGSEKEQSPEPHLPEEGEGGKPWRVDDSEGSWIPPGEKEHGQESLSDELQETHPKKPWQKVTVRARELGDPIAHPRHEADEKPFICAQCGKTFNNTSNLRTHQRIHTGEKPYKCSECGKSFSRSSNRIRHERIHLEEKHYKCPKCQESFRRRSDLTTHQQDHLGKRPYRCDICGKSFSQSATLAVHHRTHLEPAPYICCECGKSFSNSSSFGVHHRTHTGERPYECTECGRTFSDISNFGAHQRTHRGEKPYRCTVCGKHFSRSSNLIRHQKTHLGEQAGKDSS
UniProt Q6WRX3: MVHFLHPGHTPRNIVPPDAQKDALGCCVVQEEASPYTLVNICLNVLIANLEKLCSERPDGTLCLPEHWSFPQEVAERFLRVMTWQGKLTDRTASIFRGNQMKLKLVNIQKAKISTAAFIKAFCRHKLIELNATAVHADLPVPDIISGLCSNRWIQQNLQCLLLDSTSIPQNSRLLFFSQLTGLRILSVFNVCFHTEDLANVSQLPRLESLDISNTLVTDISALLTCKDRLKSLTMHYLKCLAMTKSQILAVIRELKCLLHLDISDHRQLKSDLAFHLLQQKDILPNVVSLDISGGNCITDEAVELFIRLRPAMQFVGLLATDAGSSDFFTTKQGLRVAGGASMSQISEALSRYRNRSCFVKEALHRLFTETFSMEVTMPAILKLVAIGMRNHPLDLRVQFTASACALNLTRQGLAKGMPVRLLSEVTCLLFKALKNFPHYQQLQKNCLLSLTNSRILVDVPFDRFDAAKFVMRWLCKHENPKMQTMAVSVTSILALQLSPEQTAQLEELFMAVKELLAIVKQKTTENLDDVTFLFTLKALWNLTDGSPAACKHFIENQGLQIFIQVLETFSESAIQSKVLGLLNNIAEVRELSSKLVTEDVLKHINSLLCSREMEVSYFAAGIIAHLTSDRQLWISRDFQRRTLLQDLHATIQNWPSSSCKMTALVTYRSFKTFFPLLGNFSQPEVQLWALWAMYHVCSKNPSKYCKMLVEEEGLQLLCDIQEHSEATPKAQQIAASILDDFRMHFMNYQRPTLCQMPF
UniProt Q9UBW7: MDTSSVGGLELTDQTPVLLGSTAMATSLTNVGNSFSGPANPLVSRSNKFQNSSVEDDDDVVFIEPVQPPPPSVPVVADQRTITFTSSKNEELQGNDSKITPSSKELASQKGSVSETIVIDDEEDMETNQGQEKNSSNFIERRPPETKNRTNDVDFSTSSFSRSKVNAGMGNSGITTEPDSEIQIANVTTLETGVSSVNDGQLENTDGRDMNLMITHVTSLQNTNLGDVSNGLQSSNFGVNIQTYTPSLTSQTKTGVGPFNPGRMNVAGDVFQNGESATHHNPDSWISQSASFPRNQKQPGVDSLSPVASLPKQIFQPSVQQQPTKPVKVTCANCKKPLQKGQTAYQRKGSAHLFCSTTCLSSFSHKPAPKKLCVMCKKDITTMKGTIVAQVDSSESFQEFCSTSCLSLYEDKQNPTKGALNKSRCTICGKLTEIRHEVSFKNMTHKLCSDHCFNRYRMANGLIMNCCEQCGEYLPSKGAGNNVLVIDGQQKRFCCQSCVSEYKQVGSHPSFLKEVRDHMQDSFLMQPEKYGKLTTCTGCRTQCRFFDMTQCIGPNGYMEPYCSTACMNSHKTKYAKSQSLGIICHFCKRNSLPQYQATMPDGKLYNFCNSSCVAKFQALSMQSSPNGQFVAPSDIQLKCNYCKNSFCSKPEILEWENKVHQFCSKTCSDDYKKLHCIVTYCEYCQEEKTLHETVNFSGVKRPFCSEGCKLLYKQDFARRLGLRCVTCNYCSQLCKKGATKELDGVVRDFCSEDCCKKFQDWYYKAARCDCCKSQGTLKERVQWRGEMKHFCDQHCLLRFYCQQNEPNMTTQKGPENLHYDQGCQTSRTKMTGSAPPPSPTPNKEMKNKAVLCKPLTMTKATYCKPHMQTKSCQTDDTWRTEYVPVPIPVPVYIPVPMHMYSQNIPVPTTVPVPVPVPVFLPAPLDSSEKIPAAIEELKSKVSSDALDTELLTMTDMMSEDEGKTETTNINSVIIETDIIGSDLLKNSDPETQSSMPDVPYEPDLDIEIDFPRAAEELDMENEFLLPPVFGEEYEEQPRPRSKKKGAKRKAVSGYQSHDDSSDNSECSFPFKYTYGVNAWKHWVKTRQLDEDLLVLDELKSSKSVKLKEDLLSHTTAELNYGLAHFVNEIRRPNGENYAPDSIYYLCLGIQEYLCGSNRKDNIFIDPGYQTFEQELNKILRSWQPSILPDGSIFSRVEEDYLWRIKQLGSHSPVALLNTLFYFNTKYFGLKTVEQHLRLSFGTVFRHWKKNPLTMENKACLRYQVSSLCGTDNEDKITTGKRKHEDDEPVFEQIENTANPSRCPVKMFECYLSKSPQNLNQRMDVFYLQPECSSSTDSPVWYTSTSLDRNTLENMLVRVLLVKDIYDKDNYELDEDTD
UniProt Q7L3S4: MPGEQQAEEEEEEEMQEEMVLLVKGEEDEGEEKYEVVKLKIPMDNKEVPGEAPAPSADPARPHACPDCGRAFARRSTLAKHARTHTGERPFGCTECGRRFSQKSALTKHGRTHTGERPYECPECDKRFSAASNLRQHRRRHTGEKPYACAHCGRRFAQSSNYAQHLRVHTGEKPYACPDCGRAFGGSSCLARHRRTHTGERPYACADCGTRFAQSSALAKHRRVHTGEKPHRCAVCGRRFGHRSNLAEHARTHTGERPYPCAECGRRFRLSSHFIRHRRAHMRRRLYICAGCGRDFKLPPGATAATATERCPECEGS
UniProt Q96NB3: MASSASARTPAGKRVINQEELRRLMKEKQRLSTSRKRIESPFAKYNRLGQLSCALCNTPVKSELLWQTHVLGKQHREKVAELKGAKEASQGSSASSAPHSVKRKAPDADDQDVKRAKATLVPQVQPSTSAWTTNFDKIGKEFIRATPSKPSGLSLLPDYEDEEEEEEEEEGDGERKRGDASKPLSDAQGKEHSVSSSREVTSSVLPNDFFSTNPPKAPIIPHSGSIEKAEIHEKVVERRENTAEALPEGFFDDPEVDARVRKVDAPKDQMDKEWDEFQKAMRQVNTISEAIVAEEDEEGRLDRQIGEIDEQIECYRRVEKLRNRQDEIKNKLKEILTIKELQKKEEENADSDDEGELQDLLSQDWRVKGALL
UniProt A7E2V4, whole entry, looked up: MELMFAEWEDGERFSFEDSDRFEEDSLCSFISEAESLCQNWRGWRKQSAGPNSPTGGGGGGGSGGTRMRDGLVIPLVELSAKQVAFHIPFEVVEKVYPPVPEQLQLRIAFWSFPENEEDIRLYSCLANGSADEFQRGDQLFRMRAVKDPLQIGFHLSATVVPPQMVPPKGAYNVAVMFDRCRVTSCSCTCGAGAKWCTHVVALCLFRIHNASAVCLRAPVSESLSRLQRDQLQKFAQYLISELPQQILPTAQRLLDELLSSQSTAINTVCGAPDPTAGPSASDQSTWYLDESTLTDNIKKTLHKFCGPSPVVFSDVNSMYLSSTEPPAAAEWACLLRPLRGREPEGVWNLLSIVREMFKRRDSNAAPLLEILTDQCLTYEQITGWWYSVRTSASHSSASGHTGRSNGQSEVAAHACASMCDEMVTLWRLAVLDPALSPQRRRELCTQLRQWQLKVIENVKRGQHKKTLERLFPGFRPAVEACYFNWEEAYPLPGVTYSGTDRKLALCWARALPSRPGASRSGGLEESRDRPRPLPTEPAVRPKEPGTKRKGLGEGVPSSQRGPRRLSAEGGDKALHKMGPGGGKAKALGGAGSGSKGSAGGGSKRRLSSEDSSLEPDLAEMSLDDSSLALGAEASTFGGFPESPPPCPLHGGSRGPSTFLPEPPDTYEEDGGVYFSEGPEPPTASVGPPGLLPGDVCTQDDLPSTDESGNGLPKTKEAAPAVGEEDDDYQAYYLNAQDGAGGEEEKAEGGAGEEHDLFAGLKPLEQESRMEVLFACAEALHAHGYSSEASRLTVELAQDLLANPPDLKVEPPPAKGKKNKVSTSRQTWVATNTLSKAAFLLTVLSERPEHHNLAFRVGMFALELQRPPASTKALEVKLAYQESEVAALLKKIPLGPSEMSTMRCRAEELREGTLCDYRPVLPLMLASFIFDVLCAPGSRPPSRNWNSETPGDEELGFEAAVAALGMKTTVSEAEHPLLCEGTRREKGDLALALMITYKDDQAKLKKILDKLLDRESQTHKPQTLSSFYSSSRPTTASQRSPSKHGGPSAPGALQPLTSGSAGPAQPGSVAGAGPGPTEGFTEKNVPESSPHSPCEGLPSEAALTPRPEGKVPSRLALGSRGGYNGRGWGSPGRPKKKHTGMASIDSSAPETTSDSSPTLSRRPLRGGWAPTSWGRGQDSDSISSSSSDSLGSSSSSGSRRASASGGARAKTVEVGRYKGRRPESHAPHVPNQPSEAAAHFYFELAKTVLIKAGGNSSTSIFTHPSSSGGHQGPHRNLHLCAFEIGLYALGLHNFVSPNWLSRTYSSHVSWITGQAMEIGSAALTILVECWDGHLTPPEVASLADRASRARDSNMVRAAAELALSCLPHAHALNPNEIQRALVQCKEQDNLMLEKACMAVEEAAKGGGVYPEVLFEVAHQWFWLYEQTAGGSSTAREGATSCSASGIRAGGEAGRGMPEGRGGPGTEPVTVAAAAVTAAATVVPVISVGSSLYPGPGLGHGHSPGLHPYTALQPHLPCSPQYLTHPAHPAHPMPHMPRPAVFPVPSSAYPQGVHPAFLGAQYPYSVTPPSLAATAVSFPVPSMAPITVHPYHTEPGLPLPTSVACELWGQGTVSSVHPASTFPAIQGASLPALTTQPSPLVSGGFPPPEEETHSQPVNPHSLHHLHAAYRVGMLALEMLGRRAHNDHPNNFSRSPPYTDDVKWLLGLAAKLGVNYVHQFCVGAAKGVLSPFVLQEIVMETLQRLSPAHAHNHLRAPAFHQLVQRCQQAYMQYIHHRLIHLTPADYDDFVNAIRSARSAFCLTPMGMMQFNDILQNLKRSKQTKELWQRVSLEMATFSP

Experiments:
Experiment in all cases: log2 fold change, soluble protein after heating vs DMSO (PISA); higher = thermal stabilisation; K562 lysate, 10 uM; active = over 0.2 and 3.5 SD of the protein, either way, in both replicates (recomputed)
ibrutinib = compound: C=CC(=O)N1CCC[C@@H](n2nc(-c3ccc(Oc4ccccc4)cc3)c3c(N)ncnc32)C1 [ibrutinib]
How it was run: (§1)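 Log-two fold change in thermal stability relative to solvent controls is reported from duplicates. For each sample, crude K562 extract from dounce-homogenised pellets in PBS pH 7.4 with 1 mM MgCl2, at 1 mg/mL protein, was treated with 10 μM compound for 30 min. Aliquots heated for 3 min across 48°C-58°C were pooled, brought to 0.5% NP-40 at 4°C and cleared at 21,000xg for 90 min. The supernatant was quantified by TMTpro 16plex LC-MS/MS with channel sums equalised.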

[1] = compound: CC(=O)c1cnc2ccc(-c3cc(Cl)c(O)c(Cl)c3)nc2c1N[C@H]1CC[C@H](CN(C)C)CC1
How it was run: as §1

ralimetinib = compound: CC(C)(C)Cn1c(N)nc2ccc(-c3[nH]c(C(C)(C)C)nc3-c3ccc(F)cc3)nc21 [ralimetinib]
How it was run: as §1

[2] = compound: CC(C)(O)CC(=O)NCCn1ccc2ncnc(Nc3ccc(Oc4cccc(C(F)(F)F)c4)c(Cl)c3)c21
How it was run: as §1

[3] = compound: CC(C)C1=C2N=C(C=C(N2N=C1)NCC3=CC=CC=C3)NCCCCCCN
How it was run: as §1

[4] = compound: CC1=C(C(CC(=O)N1)C2=CC=C(C=C2)C(F)(F)F)C(=O)NC3=C(C=C4C(=C3)C=NN4)F
How it was run: as §1

[5] = compound: CC1=C(C2=C(C=C1)C(=O)C3=CC=CC=C3N2CCCN)C
How it was run: as §1

[6] = compound: CC1=C(C=C(C=C1)NC(=O)C2=CC(=CC=C2)C(C)(C)C#N)NC3=CC4=C(C=C3)N=CN(C4=O)C
How it was run: as §1

[7] = compound: CC1=C(C=C(C=C1)NC(=O)C2=CC(=CC=C2)N(C)C)NC(=O)C3=CC=C(C=C3)O
How it was run: as §1

[8] = compound: CC1=CC=C(C=C1)SC2=C3C=C(SC3=CN=C2)C(=O)N
How it was run: as §1

vemurafenib = compound: CCCS(=O)(=O)Nc1ccc(F)c(C(=O)c2c[nH]c3ncc(-c4ccc(Cl)cc4)cc23)c1F [vemurafenib]
How it was run: as §1

[9] = compound: CCCS(=O)(=O)Nc1ccc(F)c(C(=O)c2c[nH]c3ncc(Cl)cc23)c1F
How it was run: as §1

barasertib = compound: CCN(CCCOc1ccc2c(Nc3cc(CC(=O)Nc4cccc(F)c4)[nH]n3)ncnc2c1)CCOP(=O)(O)O [barasertib]
How it was run: as §1

[10] = compound: CC[C@@H]1C(=O)N(C)c2cnc(Nc3ccc(C(=O)NC4CCN(C)CC4)cc3OC)nc2N1C1CCCC1
How it was run: as §1

volasertib = compound: CC[C@@H]1C(=O)N(C)c2cnc(Nc3ccc(C(=O)N[C@H]4CC[C@H](N5CCN(CC6CC6)CC5)CC4)cc3OC)nc2N1C(C)C [volasertib]
How it was run: as §1

[11] = compound: CCn1c(C(=O)N(C2CC2)C2CC2)cc2c3c(ncn3C)c(Nc3cc(C)n(C)n3)nc21
How it was run: as §1

[12] = compound: CCn1cc(-c2ccnc3[nH]c(-c4cccc(CN(C)C)c4)cc23)c(-c2ccc(NC(=O)N(C)C)cc2)n1
How it was run: as §1

[13] = compound: CN1CCC(CNc2ccc3ncc(-c4cccc(OC(F)(F)F)c4)n3n2)CC1
How it was run: as §1

saracatinib = compound: CN1CCN(CCOc2cc(OC3CCOCC3)c3c(Nc4c(Cl)ccc5c4OCO5)ncnc3c2)CC1 [saracatinib]
How it was run: as §1

sotrastaurin = compound: CN1CCN(c2nc(C3=C(c4c[nH]c5ccccc45)C(=O)NC3=O)c3ccccc3n2)CC1 [sotrastaurin]
How it was run: as §1

Measured: log2 fold change

ZNF318 (UniProt Q5VUA4)
inactive: ibrutinib 0.022 | [1] -0.043 | ralimetinib 0.029 | [2] -0.06 | [3] 0.014 | [4] 0.023 | [5] 0.038 | [6] -0.036 | [7] 0.046 | [8] 0.083 | vemurafenib 0.089 | [9] 0.025 | barasertib 0.077 | [10] 0.025 | volasertib 0.011 | [11] -0.007 | [12] 0.086 | [13] -0.033 | saracatinib 0.079 | sotrastaurin 0.047

ZNF24 (UniProt P17028)
inactive: ibrutinib 0.011 | [1] 0.036 | ralimetinib 0.006 | [2] 0.011 | [3] 0.035 | [4] 0.037 | [5] -0.005 | [6] 0.037 | [7] 0.012 | [8] 0.01 | vemurafenib -0.083 | [9] 0.03 | barasertib -0.037 | [10] 0.015 | volasertib -0.048 | [11] 0.003 | [12] 0.081 | [13] -0.025 | saracatinib -0.017 | sotrastaurin -0.022

ZNF512 (UniProt Q96ME7)
inactive: ibrutinib 0.074 | [1] -0.026 | ralimetinib 0.04 | [2] -0.094 | [3] 0.001 | [4] 0.028 | [5] -0.028 | [6] 0 | [7] -0.009 | [8] 0.002 | vemurafenib -0.097 | [9] 0.008 | barasertib 0.081 | [10] -0.086 | volasertib -0.054 | [11] 0.013 | [12] -0.107 | [13] -0.056 | saracatinib 0.069 | sotrastaurin 0.009

ZNF207 isoform 4 (UniProt O43670)
inactive: ibrutinib 0.058 | [1] 0.01 | ralimetinib 0.004 | [2] -0.008 | [3] -0.038 | [4] 0.032 | [5] -0.025 | [6] -0.015 | [7] 0.017 | [8] -0.022 | vemurafenib 0.057 | [9] -0.026 | barasertib -0.029 | [10] 0.118 | volasertib 0.026 | [11] -0.059 | [12] -0.029 | [13] 0.018 | saracatinib -0.002 | sotrastaurin 0.026

ZNF22 (UniProt P17026)
inactive: ibrutinib -0.021 | [1] 0.108 | ralimetinib 0.015 | [2] -0.046 | [3] 0.063 | [4] -0.041 | [5] -0.002 | [6] -0.037 | [7] 0.025 | [8] 0.033 | vemurafenib 0.15 | [9] 0.101 | barasertib -0.038 | [10] -0.237 | volasertib -0.019 | [11] -0.031 | [12] 0.02 | [13] -0.002 | saracatinib 0.084 | sotrastaurin 0.076

ZNF207 isoform 2 (UniProt O43670)
inactive: ibrutinib 0.042 | [1] -0.03 | ralimetinib 0.016 | [2] -0.165 | [3] -0.017 | [4] -0.025 | [5] -0.016 | [6] 0.067 | [7] -0.006 | [8] -0.048 | vemurafenib -0.04 | [9] 0.024 | barasertib -0.112 | [10] 0.182 | volasertib 0.073 | [11] -0.217 | saracatinib 0.08 | sotrastaurin 0.092

Quoted from above (two entries):
ZNF24 (UniProt P17028)
inactive: ibrutinib 0.011 | [1] 0.036 | ralimetinib 0.006 | [2] 0.011 | [3] 0.035 | [4] 0.037 | [5] -0.005 | [6] 0.037 | [7] 0.012 | [8] 0.01 | vemurafenib -0.083 | [9] 0.03 | barasertib -0.037 | [10] 0.015 | volasertib -0.048 | [11] 0.003 | [12] 0.081 | [13] -0.025 | saracatinib -0.017 | sotrastaurin -0.022

ZNF512 (UniProt Q96ME7)
inactive: ibrutinib 0.074 | [1] -0.026 | ralimetinib 0.04 | [2] -0.094 | [3] 0.001 | [4] 0.028 | [5] -0.028 | [6] 0 | [7] -0.009 | [8] 0.002 | vemurafenib -0.097 | [9] 0.008 | barasertib 0.081 | [10] -0.086 | volasertib -0.054 | [11] 0.013 | [12] -0.107 | [13] -0.056 | saracatinib 0.069 | sotrastaurin 0.009

Next records.

ZMYM3 (UniProt Q14202)
inactive: ibrutinib 0.054 | [1] -0.006 | ralimetinib 0.023 | [2] -0.01 | [3] -0.009 | [4] 0.022 | [5] -0.007 | [6] 0.02 | [7] 0.003 | [8] -0.032 | vemurafenib 0.048 | [9] 0.002 | barasertib -0.002 | [10] -0.054 | volasertib -0.004 | [11] 0.042 | [12] -0.039 | [13] -0.042 | saracatinib 0.034 | sotrastaurin -0.004

ZNF691 (UniProt Q5VV52)
inactive: ibrutinib 0.006 | [1] -0.077 | ralimetinib -0.073 | [2] -0.206 | [5] 0.003 | [6] -0.03 | [7] 0.11 | [8] 0.029 | vemurafenib -0.019 | [9] 0.035 | barasertib 0.005 | [10] 0 | volasertib -0.042 | [11] -0.069 | [12] -0.092 | [13] 0 | saracatinib 0.057 | sotrastaurin -0.039

ZYG11A (UniProt Q6WRX3)
inactive: ibrutinib 0.228 | [1] 0.063 | ralimetinib 0.082 | [2] -0.087 | [3] -0.159 | [4] 0.046 | [7] 0.052 | [8] -0.315 | [9] -0.15 | barasertib 0.286 | volasertib -0.017 | [11] -0.035 | [12] -0.16 | [13] 0.011

ZMYM2 (UniProt Q9UBW7)
inactive: ibrutinib -0.029 | [1] -0.059 | ralimetinib -0.037 | [2] -0.106 | [3] -0.039 | [4] -0.008 | [5] -0.018 | [6] 0.004 | [7] 0.04 | [8] -0.068 | vemurafenib 0.004 | [9] 0.101 | barasertib -0.016 | [10] -0.034 | volasertib -0.253 | [11] -0.119 | [12] 0.025 | [13] -0.196 | saracatinib 0.018 | sotrastaurin -0.008

ZNF771 (UniProt Q7L3S4)
inactive: ibrutinib 0.096 | [1] -0.056 | [3] -0.051 | [8] -0.037 | [9] -0.09 | barasertib -0.077 | volasertib -0.081 | [12] 0.006 | [13] -0.028

ZNF507 (UniProt Q8TCN5)
inactive: ibrutinib 0.004 | ralimetinib 0.021 | [2] -0.025 | [3] 0.005 | [4] 0.072 | [5] 0.019 | [6] -0.009 | [7] 0.022 | vemurafenib -0.055 | barasertib 0.043 | [10] 0.144 | [11] 0.044 | [12] 0.035 | [13] -0.045 | saracatinib 0.019 | sotrastaurin -0.034

ZNF830 (UniProt Q96NB3)
inactive: ibrutinib 0.048 | [1] -0.009 | ralimetinib -0.022 | [2] 0.016 | [3] -0.005 | [4] 0.055 | [5] -0.031 | [6] 0.006 | [7] -0.016 | [8] -0.022 | vemurafenib 0.038 | [9] 0.007 | barasertib 0.009 | [10] 0.094 | volasertib 0.001 | [11] -0.023 | [12] 0.042 | [13] 0.004 | saracatinib 0.07 | sotrastaurin 0.007

ZPR1 (UniProt O75312)
inactive: ibrutinib 0.001 | [1] -0.005 | ralimetinib -0.019 | [2] -0.016 | [3] -0.017 | [4] -0.021 | [5] 0.021 | [6] -0.008 | [7] 0.011 | [8] -0.004 | vemurafenib -0.004 | [9] -0.008 | barasertib 0.013 | [10] 0.012 | volasertib 0.025 | [11] 0.007 | [12] -0.009 | [13] 0.041 | saracatinib -0.016 | sotrastaurin -0.012

ZNF644 (UniProt Q9H582)
inactive: ibrutinib 0.07 | ralimetinib -0.023 | [2] 0.052 | [3] 0.038 | [4] -0.061 | [5] 0.042 | [6] -0.005 | [7] -0.02 | vemurafenib 0.027 | barasertib 0.045 | [10] 0.047 | [11] -0.136 | [12] -0.05 | [13] -0.023 | saracatinib -0.086 | sotrastaurin 0.013

ZSWIM8 isoform 4 (UniProt A7E2V4)
inactive: ibrutinib -0.08 | ralimetinib 0.101 | [2] -0.048 | [3] 0.002 | [4] -0.017 | [5] 0.28 | [6] -0.131 | [7] 0.105 | vemurafenib -0.173 | barasertib 0.22 | [10] 0.039 | [11] 0.038 | [12] -0.094 | [13] -0.071 | saracatinib 0.018 | sotrastaurin 0.039
